# Laboratory results: PubChem BioAssay AID624291 (National Center for Advancing Translational Sciences (NCATS), 2012)
# In all, about 350,000 compounds went through this assay and about 220 (0.063%) were called active. Inconclusive results, whose numbers are uncertain, are shown with a selection of clear calls. The call rests on the fitted dose curve; in most records, active means well fitted activation curve with a large enough effect; inconclusive means small, poorly fitted or top-dose-only effect; inactive means no such curve, though single readings can be large or run the other way. Potencies beside an inconclusive call are fits to weak or partial responses and may not hold up.
# Test: qHTS for Activators of Integrin-Mediated Alleviation for Muscular Dystrophy; further: nearly all actives have a fitted effect of over 60% in size;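 on activation: 100% = response of the positive control SU9516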
# Details: alpha7betagal myoblasts, beta-gal FDG fluorescence, 48 h; activation: at 38.3 µM (top of the series)
# Procedure, shortened: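 alpha7betagal+/- myoblasts (passage 13, 250/well) treated 48 h at 37C with compounds at 1:260 dilution of DMSO stock. Lysed, then beta-galactosidase activity read as FDG fluorescence (ex 480/em 540) after 30 min, with pre-read for autofluorescence.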
# Potency means the concentration at half of the fitted maximal effect.
SMILES,Potency,activation
COc1cc2c(cc1OC)CN(c1ccc(F)cc1[N+](=O)[O-])CC2,"inconclusive: 3.55 µM [activator, single point]",–
O=C(O)c1oc2ccccc2c1-n1cccc1,"inconclusive: 11.2 µM [activator, single point]",–
CN1CCN(C(=S)c2ccc(Br)cc2)CC1,–,inactive: -16.7%
COc1ccc(Cl)cc1C(=O)Nc1ccc2nc3n(c(=O)c2c1)CCCC3,"inconclusive: 12.6 µM [activator, single point]",–
CCCN(CCC)CCCNC(=O)c1cc2c(=O)[nH]c3ccccc3c2s1,–,inactive: -18.4%
CSc1ccc(CN(C)C(C)C(=O)Nc2ccc(F)c(F)c2F)cc1 (stereo not drawn),"inconclusive: 11.2 µM [activator, partial curve]",–
O=C(c1ccc(CS(=O)c2cccc(Cl)c2)o1)N1CCN(c2ccccn2)CC1 (stereo not drawn),"inconclusive: 5.01 µM [activator, single point]",–
COc1ccc(CN2CCCC(N3CCN(c4cccc(Cl)c4)CC3)C2)cc1OC (stereo not drawn),"inconclusive: 2.82 µM [activator, single point]",–
CC1CCc2cc(F)ccc2N1C(=O)c1ccncc1 (stereo not drawn),–,inactive: 5.6%
COC(CN1CCc2c(C)nc3c(C#N)cnn3c21)OC,"inconclusive: 0.501 µM [activator, full curve, poor fit]",–
NS(=O)(=O)c1ccc(Cc2ncc(C(F)(F)F)cc2Cl)s1,–,inactive: -31.4%
CC(=O)c1ccccc1NC(=O)COC(=O)CN1C(=O)C2CCCCC2C1=O (stereo not drawn),"inconclusive: 3.98 µM [activator, single point]",–
COc1ccc(CCn2c(=N)c(C(=O)N3CCN(C)CC3)cc3c(=O)n4ccccc4nc32)cc1,"inconclusive: 2.82 µM [activator, single point]",–
Cn1nnnc1NCc1cccc(Cl)c1Cl,"inconclusive: 5.01 µM [activator, single point]",–
O=C(N/N=C\c1cccc(F)c1)c1ccc(-c2ccccc2)cc1,"inconclusive: 5.01 µM [activator, single point]",–
CCN(CC)C1CCN(C(=O)c2cc(COc3ccccc3SC)on2)C1 (stereo not drawn),"inconclusive: 3.16 µM [activator, single point]",–
CS(=O)(=O)c1ccc(Cl)c(NC(=O)COC(=O)C23CC4CC(CC(C4)C2)C3)c1,"inconclusive: 5.01 µM [activator, full curve]",–
Oc1ccc2ccccc2c1/C=N/c1nccs1,–,inactive: -24.6%
CCOC(=O)c1ccc(N=C2SC(C(=O)NCCc3ccccc3)CC(=O)N2C)cc1 (stereo not drawn),"inconclusive: 10 µM [activator, partial curve, poor fit]",–
C#CCOCCOCCOCCNc1nc(N2CCN(C(=O)CCCCCCCCCCNC(=O)[C@@H](CCC(=O)O)n3cc(CCCCCN)nn3)CC2)nc(N2CCN(C(=O)CCCCCCCCCCNC(=O)[C@@H](CCC(=O)O)n3cc(CCCCCN)nn3)CC2)n1,"inconclusive: 28.2 µM [activator, single point]",–
O=C(CCn1c(=O)oc2cc(Cl)ccc21)Nc1ccc(O)cc1,"inconclusive: 25.1 µM [activator, partial curve, poor fit]",–
COc1ccccc1CNS(=O)(=O)c1ccc(Cl)s1,active: 6.31 µM,–

# Looked up above:
# activation, CCCN(CCC)CCCNC(=O)c1cc2c(=O)[nH]c3ccccc3c2s1 is entered as inactive: -18.4%
# Potency, COc1cc2c(cc1OC)CN(c1ccc(F)cc1[N+](=O)[O-])CC2 is entered as inconclusive: 3.55 µM [activator, single point]
# Potency, COc1ccc(CCn2c(=N)c(C(=O)N3CCN(C)CC3)cc3c(=O)n4ccccc4nc32)cc1 is entered as inconclusive: 2.82 µM [activator, single point]
# Potency, O=C(O)c1oc2ccccc2c1-n1cccc1 is entered as inconclusive: 11.2 µM [activator, single point]

# Further entries follow:

SMILES,Potency,activation
CCOC(=O)C1(Cc2cccc(F)c2)CCN(C(=O)COC)CC1,–,inactive: 14.5%
O=[N+]([O-])c1cc(Cl)cc(/C=N/n2cnnc2)c1O,"inconclusive: 2.82 µM [activator, full curve, poor fit]",–
CCN(CC)C(=O)Cn1cnc2sc(C)c(S(=O)(=O)N3CCC(C)CC3)c2c1=O,–,inactive: 54.8%
Cn1c(=O)n(C)c2cc(NS(=O)(=O)c3ccc(Br)s3)ccc21,"inconclusive: 3.55 µM [activator, single point]",–
O=C(CCNS(=O)(=O)c1ccc(Br)cc1)NC1CCC(O)CC1 (stereo not drawn),"inconclusive: 4.47 µM [activator, single point]",–
O=C(COc1ccccc1)NC1CCS(=O)(=O)C1 (stereo not drawn),"inconclusive: 0.501 µM [activator, full curve, poor fit]",–
O=C(NCc1ccccc1)c1ccc(NC2=NC3CS(=O)(=O)CC3S2)cc1 (stereo not drawn),"inconclusive: 28.2 µM [activator, single point]",–
Cc1nc(SCC(=O)Nc2ccc3c(c2)OCCO3)nc(C)c1C,–,inactive: -0.115%
O=C(CCc1ccccc1)Nc1nc2n(n1)C(c1ccc(Cl)cc1)CC(=O)N2 (stereo not drawn),"inconclusive: 28.2 µM [activator, partial curve, poor fit]",–
Cc1ccc(NC(=O)CSc2nnc(CNC(=O)c3ccccc3F)o2)cc1,"inconclusive: 2.82 µM [activator, partial curve, poor fit]",–
Cc1ccn2cc(-c3cccc(S(=O)(=O)N4CCCC4)c3)nc2c1,"inconclusive: 5.01 µM [activator, single point]",–
COCCNC(=S)N/N=C/c1ccc2c(c1)OCCO2,–,inactive: -10.2%
CCOc1cc(/C=N/NC(=O)c2cccc([N+](=O)[O-])c2)ccc1OS(=O)(=O)c1ccccc1,–,inactive: 0%
Cc1cccc(OC(C)C(=O)Nc2nccs2)c1 (stereo not drawn),"inconclusive: 2.82 µM [activator, single point]",–
O=C(c1cccc(OC2CCN(Cc3ccc(F)cc3Cl)CC2)c1)N1CCCC1,"inconclusive: 5.01 µM [activator, single point]",–
O=C(COC(=O)C1(c2ccc(F)cc2)CCCC1)N1CCNC1=O,"inconclusive: 15.8 µM [activator, single point]",–
COc1ccc(COC(=O)C2=C(C)NC(=O)NC2c2ccc(O)c(OC)c2)cc1 (stereo not drawn),"inconclusive: 15.8 µM [activator, single point]",–
Cc1ccc(OCC(=O)N(Cc2ccc(C)o2)C2CCS(=O)(=O)C2)cc1 (stereo not drawn),"inconclusive: 3.98 µM [activator, single point]",–
COc1ccccc1C(=O)OCC(=O)NC(C)CCc1ccccc1 (stereo not drawn),–,inactive: 16.5%
Cc1ccccc1NC(=O)COC(=O)CCc1c[nH]c2ccccc12,"inconclusive: 8.91 µM [activator, partial curve, poor fit]",–
CCOc1ccc(C(=O)Nc2cccc(C(=O)O)c2)cc1Cl,"inconclusive: 10 µM [activator, partial curve, poor fit]",–
